Assay results: the supplement of paper PMC8291772
± gives the standard error. This is one part of the list. This data set is noisy: repeats of one test often differ as much as different tests do.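 The library contained all possible DNA sequences one to five nucleotides in length. General extension ability was assessed against a threshold of the blocked-version mean plus three standard deviations, and the probe detects only chains extended by seven or more dT.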

The chains behind the UniProt entries cited, without tags or fusion partners. Where a name states a change or a piece, a line headed by the entry shows the natural chain unless it says otherwise.
UniProt P06526: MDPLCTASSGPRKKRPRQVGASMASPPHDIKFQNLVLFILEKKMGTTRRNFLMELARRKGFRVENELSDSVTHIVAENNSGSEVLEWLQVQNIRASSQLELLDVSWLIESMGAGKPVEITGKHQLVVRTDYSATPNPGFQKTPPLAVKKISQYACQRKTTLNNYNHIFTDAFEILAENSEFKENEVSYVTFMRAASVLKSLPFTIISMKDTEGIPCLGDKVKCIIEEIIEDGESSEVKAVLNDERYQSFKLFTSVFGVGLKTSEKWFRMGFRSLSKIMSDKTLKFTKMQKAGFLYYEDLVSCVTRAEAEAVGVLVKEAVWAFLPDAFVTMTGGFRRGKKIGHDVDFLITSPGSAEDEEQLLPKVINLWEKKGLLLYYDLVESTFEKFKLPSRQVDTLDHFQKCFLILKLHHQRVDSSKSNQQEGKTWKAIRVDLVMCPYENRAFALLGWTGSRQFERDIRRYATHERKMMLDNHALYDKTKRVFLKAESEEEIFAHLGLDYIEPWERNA

target: terminal deoxynucleotidyl transferase (calf thymus) (UniProt P06526); experiment: TdT poly-dT extension signal (Cy3 hybridisation fluorescence, uncapped minus capped) (fluorescence a.u.); higher = more efficient initiation of TdT extension; conditions: initiator chemistry: D-DNA, free 3'-OH (5'-tethered via HEG linker)
Description: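 All mono- to pentamer initiator sequences were made by photolithographic in situ synthesis (reverse 5'->3' direction) on glass on a single hexaethylene glycol linker. Each was made in uncapped and DMTr-dT-capped versions, about 11 replicate features each. Arrays were extended with calf thymus TdT (0.2 U/uL) and 100 uM dTTP in TdT buffer with 0.25 mM CoCl2 for 120 min at 37 C, then hybridised with an rA18-Cy3 probe at 4 C and scanned at 532 nm. The value is the mean uncapped signal minus the mean capped signal of the same sequence.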

Sequence | TdT poly-dT extension signal
TCCCT | 3250 ± 530
GAGTC | 2910 ± 560
TGTCC | 3120 ± 200
ACAG | 3930 ± 300
CTAGT | 5030 ± 260
CACCG | 3580 ± 390
TTACT | 2900 ± 310
TGTTT | 4380 ± 240
AAAC | 2880 ± 280
TTACC | 2900 ± 240
CAAGG | 4700 ± 240
TTTTG | 3570 ± 370
AAAAT | 3610 ± 420
GGGGG | 5010 ± 560
TCTTA | 3460 ± 390
GCCAC | 2940 ± 430
AGATA | 3320 ± 360
CAGTA | 3150 ± 320
CTTCC | 2940 ± 230
CCTAA | 3290 ± 490
AAAAG | 3980 ± 540
GAGAT | 3770 ± 420
ATGGC | 3480 ± 270
CTGTA | 3930 ± 480

Sequence | TdT poly-dT extension signal
ATTTG | 3430 ± 350
CTGGA | 2810 ± 560
ACGCC | 3040 ± 380
CATCG | 3450 ± 430
TGCCG | 3820 ± 200
CGGGA | 4650 ± 420
GGAAT | 3450 ± 440
CTTC | 3400 ± 250
GGCC | 3350 ± 310
GTGCC | 2600 ± 250
ACCTG | 3520 ± 260
CGTCG | 2910 ± 390
TAGCT | 3450 ± 280
TAAT | 4070 ± 260
AATTG | 4300 ± 370
CGCG | 3240 ± 450
GTAAG | 3930 ± 440
ACCT | 3520 ± 400
GATCA | 3710 ± 250
GCAGT | 3720 ± 400
GACGA | 4080 ± 310
AATGC | 2990 ± 300
GACGG | 3800 ± 530
GAAC | 2420 ± 280

Part of the list above in another layout:
TGCCG
  TdT poly-dT extension signal: 3820 ± 200
GGAAT
  TdT poly-dT extension signal: 3450 ± 440
CTTC
  TdT poly-dT extension signal: 3400 ± 250
TAAT
  TdT poly-dT extension signal: 4070 ± 260

(continued)

Sequence | TdT poly-dT extension signal
CGAAG | 3940 ± 480
ATGC | 3010 ± 290
CGACC | 3270 ± 300
TGAC | 2420 ± 330
ACAT | 3500 ± 240
GACGT | 3680 ± 340
CTACT | 3340 ± 280
GTGGC | 2690 ± 390
CCTTG | 3430 ± 380
ACGG | 4170 ± 340
GCTCC | 3110 ± 290
ATCTT | 3670 ± 400
GGACC | 3370 ± 340
CCGAG | 3790 ± 460
CATAT | 3400 ± 450
AAGC | 2840 ± 440
TAGTT | 3860 ± 720
CGGA | 3570 ± 500
CTAGG | 3000 ± 470
GCCT | 3660 ± 280
GTCCG | 3410 ± 240
CGCTC | 3340 ± 330
ATGTC | 3280 ± 320
AAACT | 2100 ± 290

Sequence | TdT poly-dT extension signal
GCGGG | 5120 ± 310
ATTAT | 3480 ± 290
GGATT | 3470 ± 390
TATA | 3110 ± 390
ACACT | 3760 ± 600
AAGGT | 3730 ± 300
TCAAG | 3710 ± 520
ACTC | 3030 ± 340
GCGGT | 3760 ± 420
GCGAC | 4190 ± 340
AGGAG | 4330 ± 420
TCGGA | 3430 ± 380
GTTCC | 3140 ± 250
GTTAA | 4000 ± 360
TTAAT | 4950 ± 520
AGAGT | 3970 ± 420
CTCT | 3060 ± 290
GTGGT | 3600 ± 380
TCATG | 3140 ± 430
TTGA | 2420 ± 420
TTTTT | 4050 ± 520
CGTAC | 4230 ± 450
GATAG | 4580 ± 310
TTAC | 2790 ± 160

Sequence | TdT poly-dT extension signal
GAAAA | 5290 ± 420
CACT | 2930 ± 410
TACTG | 3980 ± 390
CCATC | 2950 ± 430
GACT | 3340 ± 380
GCCAT | 4520 ± 620
ATAGG | 3530 ± 460
TCCG | 3910 ± 370
TGAGT | 3800 ± 430
GGGC | 3610 ± 430
ATATT | 4270 ± 170
CGTCA | 3270 ± 420
TGCAC | 3280 ± 380
GCTAT | 3540 ± 400
TGGAG | 3910 ± 440
TCCA | 3930 ± 370
GCTAC | 3610 ± 530
CGTTT | 4330 ± 330
TGTGA | 3700 ± 350
ACCCA | 4600 ± 230
GTATG | 3640 ± 430
CTGTG | 4470 ± 810
ACAGT | 4590 ± 210
CTACC | 2730 ± 290

Sequence | TdT poly-dT extension signal
AGGAA | 3320 ± 500
TCGAG | 3960 ± 500
TAGCG | 3870 ± 420
CGTAG | 3280 ± 430
CAGTT | 4480 ± 460
TTAAA | 5160 ± 220
GCTG | 2840 ± 370
TAGAT | 3310 ± 400
CCCCA | 3340 ± 430
AATAG | 3880 ± 450
TATTT | 5470 ± 880
GCCC | 2960 ± 410
CAGC | 3700 ± 570
GACAC | 3570 ± 280
GGGCC | 3660 ± 240
GGACT | 3050 ± 290
GAAGG | 4350 ± 700
AATC | 3420 ± 280
TCTAA | 4410 ± 370
GGTA | 3200 ± 400
TATGA | 3730 ± 420
TGAGC | 3670 ± 690
GCGTA | 3990 ± 350
GGAC | 2770 ± 390

Sequence | TdT poly-dT extension signal
GCCGT | 3830 ± 380
ACAGG | 4360 ± 440
GCTAG | 3080 ± 550
ACGCG | 3280 ± 360
TTTTA | 4110 ± 450
TGGCA | 4020 ± 480
ACACA | 3580 ± 260
TGTCA | 4230 ± 290
CTGCT | 3100 ± 470
AACTG | 3330 ± 220
AGAAA | 4080 ± 420
ACGGC | 4580 ± 400
AGTT | 3930 ± 310
GTTC | 3090 ± 320
CAACG | 4210 ± 440
ATGTT | 4000 ± 340
CAACA | 3430 ± 420
TTGAG | 3530 ± 470
TACCC | 2640 ± 280
AGCAA | 3750 ± 430
GCAAA | 3800 ± 510
CGACA | 2910 ± 430
TTTCC | 2890 ± 280
TACC | 3390 ± 230

Sequence | TdT poly-dT extension signal
AGATC | 2930 ± 310
GAACG | 3610 ± 360
GGAGC | 3830 ± 400
GTTGC | 3240 ± 300
AATAC | 2680 ± 340
ACCGA | 3470 ± 460
TGGA | 2880 ± 450
ACTAC | 2470 ± 390
GGACA | 3530 ± 530
GAACC | 3020 ± 320
CGAC | 3320 ± 390
CGGTG | 4970 ± 570
TCGGG | 5020 ± 470
CGGAT | 3360 ± 530
CATCT | 3920 ± 140
AGGG | 3920 ± 420
GCGCC | 3420 ± 340
TTTC | 2810 ± 380
GTCCT | 3280 ± 180
CCAG | 4100 ± 320
AGTC | 2940 ± 290
GGCCC | 3590 ± 270
GGAG | 3730 ± 400
ATGT | 3690 ± 380

Looked up above:
TdT poly-dT extension signal with GCGCC reads 3420 ± 340
TdT poly-dT extension signal with CCAG reads 4100 ± 320
TdT poly-dT extension signal with CGAC reads 3320 ± 390
TdT poly-dT extension signal with GAACG reads 3610 ± 360
TdT poly-dT extension signal with GTTGC reads 3240 ± 300
TdT poly-dT extension signal with ACTAC reads 2470 ± 390

Next results:

Sequence | TdT poly-dT extension signal
GGCG | 3600 ± 450
CAGGC | 3210 ± 380
GTGGA | 3810 ± 400
CGTTG | 3490 ± 420
CGGT | 3580 ± 430
GTAGA | 4270 ± 200
GCCTG | 4540 ± 630
GACTG | 3530 ± 400
GGTTA | 3800 ± 440
AAGGA | 3470 ± 490
CCTCT | 3040 ± 400
CTTTC | 3680 ± 510
TACAT | 3620 ± 370
TTCAG | 4840 ± 550
ACCGT | 4410 ± 210
TCCTC | 2300 ± 220
TATTG | 3410 ± 290
AGGCA | 3090 ± 460
CCTGT | 4260 ± 380
GCGAG | 4470 ± 530
ACGAG | 4610 ± 690
TTGTC | 2960 ± 340
GAAGC | 3280 ± 500
ATGAA | 4810 ± 440
